The values that follow come from article doi:10.1101/2021.10.11.462297.

By UniProt entry, the sequences of proteins in these tests, tags left out.
UniProt P13010: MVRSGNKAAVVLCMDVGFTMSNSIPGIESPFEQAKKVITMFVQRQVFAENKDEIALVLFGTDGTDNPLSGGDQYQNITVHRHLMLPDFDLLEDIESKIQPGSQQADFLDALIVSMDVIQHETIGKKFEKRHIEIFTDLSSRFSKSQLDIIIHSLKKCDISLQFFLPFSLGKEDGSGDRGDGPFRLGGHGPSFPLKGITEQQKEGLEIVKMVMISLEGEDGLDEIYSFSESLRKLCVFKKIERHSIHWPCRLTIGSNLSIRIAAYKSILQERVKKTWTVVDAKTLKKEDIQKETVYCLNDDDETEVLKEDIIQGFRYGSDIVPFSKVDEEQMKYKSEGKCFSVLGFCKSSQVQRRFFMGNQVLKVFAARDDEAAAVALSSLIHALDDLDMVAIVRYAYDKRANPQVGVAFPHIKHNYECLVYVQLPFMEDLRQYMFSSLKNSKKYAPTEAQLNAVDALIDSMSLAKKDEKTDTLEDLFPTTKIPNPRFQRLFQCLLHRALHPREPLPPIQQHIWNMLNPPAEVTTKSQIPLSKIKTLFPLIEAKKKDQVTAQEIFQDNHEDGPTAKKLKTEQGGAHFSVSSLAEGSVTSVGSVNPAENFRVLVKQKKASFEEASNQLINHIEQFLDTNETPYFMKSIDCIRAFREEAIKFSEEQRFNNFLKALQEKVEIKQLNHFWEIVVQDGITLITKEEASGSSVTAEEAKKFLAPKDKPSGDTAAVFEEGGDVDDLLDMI
UniProt O60264: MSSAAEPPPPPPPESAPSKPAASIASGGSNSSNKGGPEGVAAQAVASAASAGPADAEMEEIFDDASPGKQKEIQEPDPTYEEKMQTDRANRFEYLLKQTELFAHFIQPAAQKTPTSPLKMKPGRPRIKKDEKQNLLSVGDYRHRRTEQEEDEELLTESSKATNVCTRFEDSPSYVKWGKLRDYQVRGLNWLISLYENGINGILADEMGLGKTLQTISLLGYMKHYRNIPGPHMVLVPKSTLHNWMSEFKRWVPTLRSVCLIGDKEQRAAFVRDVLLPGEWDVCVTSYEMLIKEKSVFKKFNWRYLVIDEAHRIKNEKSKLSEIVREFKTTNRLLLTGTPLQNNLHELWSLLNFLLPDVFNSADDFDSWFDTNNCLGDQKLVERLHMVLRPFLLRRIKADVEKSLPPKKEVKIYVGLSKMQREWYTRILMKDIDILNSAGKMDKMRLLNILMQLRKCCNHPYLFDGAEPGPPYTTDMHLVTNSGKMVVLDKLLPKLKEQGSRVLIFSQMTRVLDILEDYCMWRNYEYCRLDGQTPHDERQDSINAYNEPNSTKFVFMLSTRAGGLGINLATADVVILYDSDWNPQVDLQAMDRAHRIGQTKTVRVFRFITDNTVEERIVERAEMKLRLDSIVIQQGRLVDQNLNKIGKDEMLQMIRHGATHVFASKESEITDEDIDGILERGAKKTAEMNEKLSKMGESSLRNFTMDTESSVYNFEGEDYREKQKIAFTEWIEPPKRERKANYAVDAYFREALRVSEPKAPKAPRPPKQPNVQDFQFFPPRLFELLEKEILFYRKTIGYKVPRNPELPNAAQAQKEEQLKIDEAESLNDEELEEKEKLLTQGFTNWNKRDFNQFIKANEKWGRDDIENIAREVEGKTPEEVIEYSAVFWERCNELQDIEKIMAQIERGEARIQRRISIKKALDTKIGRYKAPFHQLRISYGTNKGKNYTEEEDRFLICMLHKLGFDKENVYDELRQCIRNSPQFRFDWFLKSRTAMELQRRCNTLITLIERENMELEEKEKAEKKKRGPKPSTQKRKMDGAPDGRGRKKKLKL

No constants are given. Whether binding was seen depends on the method and setting. Binding seen in cells or lysates may run through a third protein. Some entries that bind do so weakly or less than the wild type. Sequences can lack the tags named with a protein.

One test deals with EGFP-FLAG-Ku80 (UniProt P13010). In words: co-IP.
Another test addresses SMARCA5-FLAG-Myc (UniProt O60264). The experiment in a line: co-IP.

B1: HA-TRAIP (protein, UniProt Q9BWF2 1-469)
chain: MPIRALCTICSDFFDHSRDVAAIHCGHTFHLQCLIQWFETAPSRTCPQCRIQVGKRTIINKLFFDLAQEEENVLDAEFLKNELDNVRAQLSQKDKEKRDSQVIIDTLRDTLEERNATVVSLQQALGKAEMLCSTLKKQMKYLEQQQDETKQAQEEARRLRSKMKTMEQIELLLQSQRPEVEEMIRDMGVGQSAVEQLAVYCVSLKKEYENLKEARKASGEVADKLRKDLFSSRSKLQTVYSELDQAKLELKSAQKDLQSADKEIMSLKKKLTMLQETLNLPPVASETVDRLVLESPAPVEVNLKLRRPSFRDDIDLNATFDVDTPPARPSSSQHGYYEKLCLEKSHSPIQDVPKKICKGPRKESQLSLGGQSCAGEPDEELVGAFPIFVRNAILGQKQPKRPRSESSCSKDVVRTGFDGLGGRTKFIQPTDTVMIRPLPVKPKTKVKQRVRVKTVPSLFQAKLDTFLWS
As to B1, the binding result with EGFP-FLAG-Ku80 and in the test with SMARCA5-FLAG-Myc was “binds” throughout.
